Some of the results follow. These are further read-outs of the screen, such as a control signal, another cell line or another target. No call is given for them. Compounds called inactive in the main read-out are mostly missing here. The note in brackets gives the kind of curve behind each potency; many fits are weak.

A short description of this assay: qHTS Assay for Modulators of Lamin A Splicing. To be noted: HeLa LMNA splicing GFP/RFP minigene ratio, 48 h. The essentials: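 S3 HeLa cells stably expressing lamin A-EGFP splicing minigene plus DsRed2, 600 cells/well, 48 h compound exposure at 37C. Laser-scanning cytometry; analysed as GFP (500-530 nm)/RFP (575-640 nm) total intensity ratio; 0.5% DMSO vehicle.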
(In general: Quantitative high-throughput screening tests each substance at several concentrations.)

Where [1] appears, read: measured here: RFP viability control channel.
[2] abbreviates: measured here: GFP splicing reporter channel.

As to `CCOC(=O)N1CCN(Cc2nc3cc(NC(=O)c4ccccc4Cl)ccc3n2C(C)C)CC1`, under setting [1], the AC50 was 0.708 µM [rising, partial curve]. With `Cc1cc(-c2ccccc2)nnc1NCCN1CCOCC1`, the AC50 runs as follows: under setting [2], 14.1 µM [falling, single point]; under setting [1], 22.4 µM [falling, partial curve, poor fit]. Take `O=C(CN1CCC(n2nnc3cc(F)ccc32)CC1)NCCc1nc2ccccc2[nH]1`: the AC50 is, setting by setting: under setting [2], 35.5 µM [rising, single point]; under setting [1], 20 µM [rising, single point].

For `CN(Cc1ccco1)c1ncnc2ccc(-c3ccccc3C#N)cc12`, under setting [1], the AC50 is 35.5 µM [falling, single point]. Regarding `CC1CCCN(C(=S)SCC(=O)c2cc(Br)cc(Br)c2O)C1` (configuration not stated), the AC50 under setting [2] was 0.02 µM [rising, full curve, poor fit] and the AC50 under setting [1] is 35.5 µM [rising, single point].

With `Cc1cc(Nc2nc3ccccc3nc2Cl)n(-c2ccc([N+](=O)[O-])cc2)n1`, the AC50 was 11.2 µM [falling, single point] under setting [2] and 35.5 µM [rising, single point] under setting [1]. As for `O=C(CSc1ccc(Cl)cc1Cl)N1CCC(c2nc3ccccc3s2)CC1`, the AC50 under setting [2] was 11.2 µM [falling, partial curve, poor fit] and the AC50 under setting [1] is 10 µM [falling, partial curve, poor fit].

`Cc1c(C(=O)N2CCOCC2)[nH]c2c1C(=O)CC(c1ccccc1Cl)C2` (configuration not stated): the AC50 under setting [1] is 3.16 µM [rising, full curve, poor fit]. Same read-out and setting: for `O=C(Cn1cc(C(=O)c2ccco2)c2ccccc21)Nc1ccccc1` the value was 17.8 µM [rising, single point]. With `Cc1nn(Cc2cccc(Oc3ccccc3)c2)c(C)c1NC(=O)NC12CC3CC(CC(C3)C1)C2`, under setting [1], the AC50 was 0.00447 µM [falling, full curve, poor fit]. Turning to `COc1cc(CNc2ccc(CNc3ncn[nH]3)cc2)ccc1OCC(=O)NC(C)(C)C`, the AC50 runs as follows: under setting [2], 6.31 µM [rising, partial curve]; under setting [1], 12.6 µM [rising, partial curve]. Consider `CCC(C)(C)n1nnnc1CN(Cc1cccs1)Cc1cc2cc(OC)ccc2[nH]c1=O`, for which the AC50 under setting [2] was 28.2 µM [rising, single point] and the AC50 under setting [1] is 12.6 µM [rising, partial curve, poor fit]. As to `CCn1c(=O)cc(SCC(=O)NCCCN2CCC(C)CC2)c2ccccc21`, under setting [2], the AC50 was 10 µM [falling, partial curve]. Turning to `O=C(CSc1nc2ccccc2s1)Nc1cc(S(=O)(=O)N2CCOCC2)ccc1Cl`, the AC50 under setting [2] is 35.5 µM [rising, single point] and the AC50 under setting [1] was 14.1 µM [rising, partial curve, poor fit]. For `O=C(c1ccco1)N1CCN(c2nc(C3CC3)nc3sc4c(c23)CCCC4)CC1`, the AC50 is, setting by setting: under setting [2], 35.5 µM [rising, single point]; under setting [1], 35.5 µM [rising, single point]. As for `CCCCCn1c(=O)[nH]c2cc(C(=O)NCCN(CC)CC)ccc2c1=O`, the AC50 reads like this: under setting [2], 0.178 µM [rising, full curve]; under setting [1], 0.251 µM [rising, full curve, poor fit]. `Cc1cccc(-c2noc(CN(C(=O)/C=C/c3ccccc3Cl)C(C)C)n2)c1`: the AC50 under setting [2] is 35.5 µM [rising, single point]. Consider `Cc1ccc(C(=O)N/C(=C/C=C\c2ccccc2)C(=O)NCc2ccco2)cc1`, for which the AC50 under setting [1] is 22.4 µM [rising, single point]. The same measure, in the same setting: for `CC1=CC2=NC(=O)/C(=C\c3cc(C)n(-c4ccccc4F)c3C)C(=N)N2O1` the value was 25.1 µM [rising, single point].

As to `O=S(=O)(CCc1ccccc1)N1CCOCC1`, the AC50 is 3.16 µM [falling, single point] under setting [2] and 2.82 µM [falling, single point] under setting [1]. Regarding `CCSc1nnc(NC(=O)C(C(F)(F)F)C(F)(F)F)s1`, the AC50 is, setting by setting: under setting [2], 35.5 µM [falling, single point]; under setting [1], 35.5 µM [falling, single point]. As for `NCCNS(=O)(=O)c1cccc2cnccc12`, the AC50 under setting [2] is 2.82 µM [rising, partial curve, poor fit] and the half-maximal activity concentration (AC50) under setting [1] was 3.98 µM [rising, partial curve, poor fit]. For `Cc1ccc(C(=O)NC(NCc2ccccc2)C(Cl)(Cl)Cl)cc1` (configuration not stated), the AC50 under setting [2] is 12.6 µM [rising, single point].

Consider `CCc1c(C)sc2c1CCN(Cc1ccccc1C#N)C2c1ccccc1` (configuration not stated), for which the AC50 under setting [1] was 7.08 µM [rising, partial curve].

With `Cc1nn(C)c2c1c(-c1ccccc1)cc(=O)n2Cc1ccc(F)cc1`, the AC50 under setting [1] is 11.2 µM [rising, partial curve]. Same read-out and setting: for `Cc1cc([N+](=O)[O-])ccc1NC(=O)C[n+]1ccc(N(C)C)cc1` the value was 0.00447 µM [falling, full curve, poor fit]. In the case of `S=C(NCCc1ccccc1)NCc1cccs1`, the AC50 reads like this: under setting [2], 2.82 µM [rising, full curve, poor fit]; under setting [1], 3.98 µM [rising, partial curve]. On to `O=C(CSc1nc2cc(Cl)ccc2o1)NCCc1ccccc1`, for which the AC50 under setting [2] is 12.6 µM [rising, partial curve, poor fit] and the AC50 under setting [1] was 17.8 µM [rising, single point]. For the compound `N=c1oc2c3c4c(cc2cc1C(=O)Nc1ccccc1)CCCN4CCC3`, the AC50 under setting [2] was 5.01 µM [falling, full curve] and the AC50 under setting [1] was 6.31 µM [falling, full curve].

As to `COc1ccc(C(=O)NC(=S)Nc2cccc(S(=O)(=O)N3CCOCC3)c2)cc1`, the AC50 under setting [1] was 12.6 µM [rising, single point]. Regarding `CCC(Oc1ccccc1)C(=O)NC1CCSC1=O` (configuration not stated), under setting [2], the AC50 was 0.178 µM [rising, full curve, poor fit].

For the compound `CCOC(=O)c1cc(-c2ccccc2)n(CCC(=O)Nc2cc(OCC)ccc2OCC)c1C`, the half-maximal activity concentration (AC50) under setting [2] was 0.0141 µM [rising, full curve].

On to `COC(=O)c1ccccc1NC(=S)NC(NC(=O)COc1ccccc1)C(Cl)(Cl)Cl` (configuration not stated), for which, under setting [1], the AC50 was 17.8 µM [falling, partial curve, poor fit]. Still for that read-out and setting: the result for `CCN(CC)S(=O)(=O)c1ccc(N2CCCCC2)c(NC(=O)/C=C/c2cc(OC)c(OC)c(OC)c2)c1` reads 3.55 µM [rising, full curve]. Consider `O=C(NCc1ccc2[nH]c3c(c2c1)CCCC3)c1ccc(S(=O)(=O)N2CCCC2)cc1`, for which the AC50 runs as follows: under setting [2], 12.6 µM [rising, single point]; under setting [1], 35.5 µM [rising, single point]. As for `Cc1ccc(S(=O)(=O)N2CCN(c3nc4ccccc4nc3-n3nc(C)cc3C)CC2)cc1`, under setting [2], the AC50 is 25.1 µM [falling, single point]. As for `Nc1nonc1C(=O)NCCNCc1ccccc1OCc1ccccc1F`, the AC50 under setting [1] is 15.8 µM [rising, single point]. Still for that read-out and setting: for `Cc1ccc(S(=O)(=O)NC(C)C(c2cccs2)N2CCOCC2)cc1` (configuration not stated) the value was 5.62 µM [rising, single point]. On to `COc1ccccc1C(=O)OCc1cc(=O)n2nc(C3CCCCC3)sc2n1`, for which, under setting [1], the AC50 is 31.6 µM [rising, partial curve, poor fit].

For `OC[C@H]1O[C@@H](n2cnc3c(Nc4ccccc4)ncnc32)[C@H](O)[C@@H]1O`, the AC50 under setting [1] was 0.0447 µM [rising, full curve, poor fit]. Turning to `COc1cccc(C(=O)Oc2ccccc2/C=C\C(=O)c2cc3ccccc3o2)c1`, the AC50 is, setting by setting: under setting [2], 35.5 µM [falling, single point]; under setting [1], 35.5 µM [falling, single point]. In the case of `CN(Cc1ccccc1NCC(=O)Nc1ccccc1C#N)C1CCCCC1`, the AC50 under setting [2] is 0.282 µM [falling, full curve, poor fit]. `CCc1ccc(CNCc2ccc(OCC(O)CN(C)Cc3ccccc3)cc2)nc1` (configuration not stated): the AC50 by setting is: under setting [2], 2.24 µM [falling, partial curve]; under setting [1], 0.447 µM [falling, full curve]. As for `O=c1c2ccccc2nc2n1C(CSCc1ccc(Cl)cc1Cl)CS2` (configuration not stated), the AC50 under setting [2] is 2.82 µM [rising, full curve, poor fit] and the AC50 under setting [1] is 3.55 µM [rising, single point]. Consider `OCCNCCNCc1ccccc1OCc1ccccc1`, for which the half-maximal activity concentration (AC50) was 0.00447 µM [falling, full curve, poor fit] under setting [2] and 22.4 µM [falling, partial curve, poor fit] under setting [1]. Regarding `CC(C)CC(=O)Nc1ccc(C(=O)COc2ccc(-c3nnco3)cc2)cc1`, under setting [2], the AC50 is 7.94 µM [rising, partial curve, poor fit]. As for `Brc1ccc(CSc2nnc(-c3cccnc3)o2)cc1`, the AC50 is 0.0158 µM [falling, full curve, poor fit] under setting [2] and 0.0282 µM [falling, full curve, poor fit] under setting [1].

As for `C/C(=C\c1ccc(C(=O)O)cc1)c1ccc2c(c1)C(C)(C)CCC2(C)C`, the AC50 under setting [2] is 25.1 µM [falling, partial curve, poor fit] and the AC50 under setting [1] was 35.5 µM [falling, partial curve, poor fit]. `Cc1ccc(NC(=O)c2cc(S(=O)(=O)NCCC3=CCCCC3)ccc2F)cc1C`: the AC50 under setting [2] was 7.08 µM [falling, full curve, poor fit].

With `O=C(CSc1ccc(Cl)cc1)N1CCN(c2ccc([N+](=O)[O-])cc2Cl)CC1`, the AC50 under setting [1] was 12.6 µM [rising, partial curve]. On the same count and under the same terms, for `Clc1ccccc1-c1ccc(CN2CCN(c3ccccc3)CC2)o1` the value was 35.5 µM [rising, single point]. For `O=C(NCc1ccccc1F)C1CCCN(C(=O)NC2CCCCC2)C1` (configuration not stated), the AC50 by setting is: under setting [2], 12.6 µM [rising, single point]; under setting [1], 31.6 µM [rising, single point]. Turning to `COC(=O)c1cccc(NC(=S)NCCC2=CCCCC2)c1`, the AC50 under setting [1] was 10 µM [falling, partial curve, poor fit].

As usually defined, the AC50 is the concentration giving half of the maximal activity seen.

The record behind these values is PubChem BioAssay AID1487 (National Center for Advancing Translational Sciences (NCATS), 2009).
